Laboratory results: PubChem BioAssay AID1224828 (NIAID, 2016)
Test: 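Regulators linking TLR4 signalling to p65 nuclear translocation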 (primary screen). Cell system: mouse RAW264.7 G9 macrophage reporter cells (GFP-p65, Tnf promoter-mCherry). Reagent: siRNA pool against mouse genes, 100 nM. Time to read-out: 2 days siRNA transfection, then 40 min LPS before fixation. Challenge: LPS (Salmonella minnesota R595) at 10 ng/ml. Measured: 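Microscopy ratio of nuclear to perinuclear-ring GFP-p65 signal, scaled to the plate median; gene score is the average of two replicate robust z-scores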. Scale: p65 translocation robust z-score: higher = more nuclear NF-kappaB p65 after LPS than the plate median; nuclear/cytoplasmic p65 ratio: higher = more nuclear NF-kappaB p65. Hit rule: 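Called active when z exceeds 3.3 or falls under -1.56 (median of Tlr4 controls), giving activity score of at least 50; no calls for control wells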. Calls: active = hit (p65 shift raised or lowered); inactive = no clear change.
Here is one part, drawn at random, of about 17,000 deposited reagents. In the full data, 762 (4.5%) were called active. 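Active calls include both raised and lowered p65 entry, mostly lowered; wells with fewer than 50 cells lack a z-score.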 Raw values vary from plate to plate and are shown uncorrected. A number with no mark means an inactive call.

For Khsrp (KH-type splicing regulatory protein) [SID315467608], the entry reads p65 translocation robust z-score 0.42; nuclear/cytoplasmic p65 ratio, rep 1 = 1.51; nuclear/cytoplasmic p65 ratio, rep 2 = 1.46; low cell count flag enough cells to score.
Knock-down of Htr2a (5-hydroxytryptamine (serotonin) receptor 2A) [SID315467340] came out at: nuclear/cytoplasmic p65 ratio, rep 1 = 1.3; nuclear/cytoplasmic p65 ratio, rep 2 = 1.44; low cell count flag fewer than 50 cells per well; well left out of scoring.
Frzb (frizzled-related protein) [SID315469195] showed p65 translocation robust z-score -0.68; nuclear/cytoplasmic p65 ratio, rep 1 = 1.31; nuclear/cytoplasmic p65 ratio, rep 2 = 1.32; low cell count flag enough cells to score.
Jrk (JRK helix-turn-helix protein) [SID315467550] scored nuclear/cytoplasmic p65 ratio, rep 1 = 1.67; nuclear/cytoplasmic p65 ratio, rep 2 = 1.51; low cell count flag fewer than 50 cells per well; well left out of scoring.
Knock-down of Fa2h (fatty acid 2-hydroxylase) [SID315481685] resulted in: p65 translocation robust z-score 0.99; nuclear/cytoplasmic p65 ratio, rep 1 = 1.7; nuclear/cytoplasmic p65 ratio, rep 2 = 1.63; low cell count flag enough cells to score.
Against Cimip2b (ciliary microtubule inner protein 2B) [SID315481552] the deposit lists p65 translocation robust z-score -0.88; nuclear/cytoplasmic p65 ratio, rep 1 = 1.2; nuclear/cytoplasmic p65 ratio, rep 2 = 1.13; low cell count flag enough cells to score.
Knock-down of Arhgef6 (Rac/Cdc42 guanine nucleotide exchange factor 6) [SID315474711] came out at: p65 translocation robust z-score -0.97; nuclear/cytoplasmic p65 ratio, rep 1 = 1.49; nuclear/cytoplasmic p65 ratio, rep 2 = 1.46; low cell count flag enough cells to score.
With knock-down of Spon2 (spondin 2, extracellular matrix protein) [SID315476240], the screen gave p65 translocation robust z-score -0.99; nuclear/cytoplasmic p65 ratio, rep 1 = 1.34; nuclear/cytoplasmic p65 ratio, rep 2 = 1.08; low cell count flag enough cells to score.
After knock-down of Grb7 (growth factor receptor bound protein 7) [SID315467014], the screen gave p65 translocation robust z-score 0.25; nuclear/cytoplasmic p65 ratio, rep 1 = 1.47; nuclear/cytoplasmic p65 ratio, rep 2 = 1.4; low cell count flag enough cells to score.
With knock-down of 2810025M15Rik (RIKEN cDNA 2810025M15 gene) [SID315473943], the screen gave p65 translocation robust z-score 2.08; nuclear/cytoplasmic p65 ratio, rep 1 = 1.68; nuclear/cytoplasmic p65 ratio, rep 2 = 1.73; low cell count flag enough cells to score.
For Cul4b (cullin 4B) [SID315474584], the entry reads p65 translocation robust z-score -0.77; nuclear/cytoplasmic p65 ratio, rep 1 = 1.45; nuclear/cytoplasmic p65 ratio, rep 2 = 1.21; low cell count flag enough cells to score.
For Daam1 (dishevelled associated activator of morphogenesis 1) [SID315477558] the deposit lists p65 translocation robust z-score -0.07; nuclear/cytoplasmic p65 ratio, rep 1 = 1.55; nuclear/cytoplasmic p65 ratio, rep 2 = 1.28; low cell count flag enough cells to score.
Against Klk1b27 (kallikrein 1-related peptidase b27) [SID315467653], the entry reads p65 translocation robust z-score 1.74; nuclear/cytoplasmic p65 ratio, rep 1 = 1.27; nuclear/cytoplasmic p65 ratio, rep 2 = 1.67; low cell count flag enough cells to score.
With knock-down of Usp42 (ubiquitin specific peptidase 42) [SID315475382], the record shows p65 translocation robust z-score 0.79; nuclear/cytoplasmic p65 ratio, rep 1 = 1.79; nuclear/cytoplasmic p65 ratio, rep 2 = 1.67; low cell count flag enough cells to score.
For Hsf3 (heat shock transcription factor 3) [SID315479819] the deposit lists p65 translocation robust z-score 0.3; nuclear/cytoplasmic p65 ratio, rep 1 = 1.53; nuclear/cytoplasmic p65 ratio, rep 2 = 1.67; low cell count flag enough cells to score.
Depletion of Smad9 (SMAD family member 9) [SID315471336] resulted in: p65 translocation robust z-score -0.5; nuclear/cytoplasmic p65 ratio, rep 1 = 1.45; nuclear/cytoplasmic p65 ratio, rep 2 = 1.51; low cell count flag enough cells to score.
After knock-down of Cd8b1 (CD8 subunit beta 1) [SID315465882] the results were p65 translocation robust z-score -1.37; nuclear/cytoplasmic p65 ratio, rep 1 = 1.36; nuclear/cytoplasmic p65 ratio, rep 2 = 1.21; low cell count flag enough cells to score.
Tbpl1 (TATA box binding protein-like 1) [SID315479339] scored p65 translocation robust z-score -0.4; nuclear/cytoplasmic p65 ratio, rep 1 = 1.5; nuclear/cytoplasmic p65 ratio, rep 2 = 1.43; low cell count flag enough cells to score.
Ramp3 (receptor (calcitonin) activity modifying protein 3) [SID315471370] showed p65 translocation robust z-score 1.97; nuclear/cytoplasmic p65 ratio, rep 1 = 2.11; nuclear/cytoplasmic p65 ratio, rep 2 = 1.49; low cell count flag enough cells to score.
Pck1 (phosphoenolpyruvate carboxykinase 1, cytosolic) [SID315468407] gave p65 translocation robust z-score 1.75; nuclear/cytoplasmic p65 ratio, rep 1 = 2.07; nuclear/cytoplasmic p65 ratio, rep 2 = 1.51; low cell count flag enough cells to score.
For Cmtm1 (CKLF-like MARVEL transmembrane domain containing 1) [SID315481724], the entry reads p65 translocation robust z-score 1.57; nuclear/cytoplasmic p65 ratio, rep 1 = 1.91; nuclear/cytoplasmic p65 ratio, rep 2 = 1.95; low cell count flag enough cells to score.

Part of the list above, set out differently.
gene,PubChem SID,p65 translocation robust z-score,"nuclear/cytoplasmic p65 ratio, rep 1","nuclear/cytoplasmic p65 ratio, rep 2",low cell count flag
Ramp3 (receptor (calcitonin) activity modifying protein 3),SID315471370,1.97,2.11,1.49,enough cells to score
"Pck1 (phosphoenolpyruvate carboxykinase 1, cytosolic)",SID315468407,1.75,2.07,1.51,enough cells to score
Cmtm1 (CKLF-like MARVEL transmembrane domain containing 1),SID315481724,1.57,1.91,1.95,enough cells to score
